Measured values as given in paper PMC10163288.
The list shows a part of the results.

B1: il10ra_site1_sap_24_mot_HHH_b1_03559_000000151_0001_22_39_H_._HHH_b1_08582_0001_0000300017_0000001_0_0001 (protein)
chain: SSSSSEIEEEIEKLRKELEELAEKGDLERFARVFARILRLVYQLGDEELLRELWRALKRQESSSS
B2: il10ra_site1_normal_mot_6bb093d23f5042b6c551c363657da53b_0001_1_000000153_0001_51_65_H_._HHH_b2_07765_af2_0001_0000500007_0000001_0 (protein)
chain: SSSSSSDELEELIEKIEEALEEGDEELVRELLQKLSRYAVELNDHEASRFAIEVAEELESSSSSS
B3: il10ra_site1_normal_mot_HHH_b1_05333_000000049_0001_1_19_H_._HHH_b1_03230_0001_0000100008_0000001_0 (protein)
chain: SSSSDVFERSLEIAKRALKLLLEAGDPEAAEYLFEVVRRHLEEAGNEELVQELEEFFEELSSSSS
B4: il10ra_site1_sap_28_mot_HHH_b2_03183_af2_000000055_0001_40_56_H_._HHH_b1_01516_0001_0000600037_0000001_0_0001 (protein)
chain: SSSSSMAEELAEAVERIAKQAYENGNPESARRLLEAALLVVKELGDEELLEELQELLEELSSSSS
B5: il10ra_site1_normal_mot_HHH_b2_07579_000000275_0001_1_19_H_._HHH_b2_06013_0001_0000300024_0000002_0 (protein)
chain: SSSSSDLAQEVIELIREALQIPDPEEAREVAEEALRLAEEIGNEVLRFSAEHVLRDIERGSSSSS
B6: il10ra_site1_sap_14_mot_HHH_b1_07641_af2_000000285_0001_1_21_H_._HHH_b2_06184_0001_0000100001_0000002_0_0001 (protein)
chain: SSSSNEANERVMKLLEEASEAAQNGDPEEAREILEEAERIAEEGGNPILEMQVRWMLERISSSSS
B7: il10ra_site1_sap_21_mot_49468d6c54d8157f7969f91124172a68_0001_af2_000000173_0001_37_51_H_._d30c92881be5d2f229e465dffc40e224_0001_af2_0001_0000600012_0000001_0_0 … (protein)
chain: SSSSSDEEQKLLELLLEAFRLALRGNPEEAEKLLEEAEELARELGDERALRMVEDLLRALSSSSS
B8: il10ra_site1_sap_21_mot_HHH_b1_07571_000000144_0001_42_58_H_._HHH_b2_00141_0001_0000400034_0000001_0_0001 (protein)
chain: SSSSDEEAQEYARRALHFVKALGDKRLTRAAILTVRRLLKETGDPELEKVLEELEELLERGSSSS
B9: il10ra_site1_normal_mot_05ca327611f5605f0dd8494b449afcbf_0001_1_000000248_0001_35_51_H_._HHH_b1_03085_af2_0001_0000600051_0000001_0 (protein)
chain: SSSSNTEEAQELAREAAELLRNGNPEEAHRIAEEALELAEKLGNFALAFAIRLLLEAIERASSSS
B10: il10ra_site1_normal_mot_31949d1e7b999570dbb3257a17d00b36_0001_af2_000000006_0001_15_30_H_._HEEHE_2118_0001_0000500016_0000001_0 (protein)
chain: DRLEIFSRAVEYFAEHAGVPHVEVSVSNGEVEVTFEGDDEIARDASEAVRFSARSIGIKVEVTVE
B11: il10ra_site1_sap_11_mot_HHH_b2_01729_af2_000000109_0001_43_56_H_._ems_3hC_1028_0002_af2_0001_0000900006_0000002_0_0001 (protein)
chain: SSSSDLNQEALELVLEAFRLLLRGDPEEAKELLEEALQVAREGNNERLAEQIEILLRSLKSSSSS
B12: il10ra_site1_sap_12_mot_HHH_b1_05329_000000008_0001_43_56_H_._HHH_b1_04962_0001_0000100003_0000001_0_0001 (protein)
chain: SSSSSHQEVFELLRRAIELAKEGNPEEARELLERAKEIAEELNSRVMKHLIRFVEKVVEDVSSSS
B13: il10ra_site1_sap_19_mot_HHH_b2_00573_000000208_0001_39_53_H_._HHH_b1_02071_0001_0000300025_0000001_0_0001_af2pred_0001 (protein)
chain: SSSSDEEIEERVEELLEEAEHVTDVQEWFRILREALELAAELGDPELQRLVREASRRFIKGSSSS
B14: il10ra_site1_normal_mot_HHH_b2_00475_000000107_0001_44_57_H_._HHH_b1_06647_af2_0001_0000600033_0000002_0 (protein)
chain: SSSSLERRVVELIFRAVRLLANGNPEEAEEVLEEAKELAEELNDEELRRYVEIALHFVRSHSSSS
B15: il10ra_site1_sap_10_mot_HHH_b1_04592_af2_000000261_0001_39_52_H_._HHH_b2_07378_0001_0000100002_0000001_1_0001 (protein)
chain: SSSSSDLAEEAVRLSQEAFHLALRGNPEEARKVLEEALELAEEAGDERLKRVIRDLLSILSSSSS
B16: il10ra_site1_sap_16_mot_HHH_b2_03220_af2_000000223_0001_23_40_H_._HHH_b1_06962_0001_0000300023_0000001_0_0001 (protein)
chain: SSSSDEENRELFELLEEAAELHHEGNPEEARKVLEEARELAEELGNRLFLIQIRFILRLLRSSSS
B17: il10ra_site1_normal_mot_HHH_b2_02043_000000010_0001_1_19_H_._HHH_b1_02566_af2_0001_0000600031_0000001_0 (protein)
chain: SSSNSYEIVREAIEEANELARNGNEEEAEELLEEAIRLLREAGNNAAVFALEQLLRLIEEQSSSS
B18: il10ra_site1_sap_10_mot_HHH_b2_06795_000000133_0001_42_56_H_._HHH_b2_07514_0001_0000100002_0000001_0_0001 (protein)
chain: SSSSDEEEELRRLIEEIQELAEEGDREKFLRLAIEVLRFAIQARNKELFEELWKLIAERFSSSSS
B19: il10ra_site1_sap_14_mot_HHH_b2_02116_af2_000000165_0001_41_55_H_._HHH_b1_06459_0001_0000200026_0000001_0_0001 (protein)
chain: SSSSSSDLEELLEELEKAVEEGDKEKALRIAMEALRLAAQLNDEEAFQELWRLAKEVASSSSSSS
B20: il10ra_site1_normal_mot_513c16ae44941e68898e0f7c259e5a28_0001_1_000000056_0001_35_50_H_._HHH_b1_07409_0001_0000600027_0000001_0 (protein)
chain: SSSSSEEERELIEFIIRLIKQLGNPELAERVEELLEEFEKEGDPEYLREAAEILFRAARLGSSSS
B21: il10ra_site1_normal_mot_HHH_b2_03425_000000200_0001_22_39_H_._HHH_b1_07967_af2_0001_0000100005_0000002_0 (protein)
chain: SSSSNERERLYELLRRLIHLSRHRDEEEFEKVREEIEELVEELNNILARFVLEHIERAFEGSSSS
B22: il10ra_site1_normal_mot_8756ee2cf497b5429c717dfc0c0bcfd6_0001_000000186_0001_1_13_H_._HHH_b1_02799_af2_0001_0000200016_0000001_0 (protein)
chain: SSSSDEEVERVIRLSREAAELDQEGDKEEAEKILREAEEIAEELGNDVLLWQVEYLLELLKSSSS
B23: il10ra_site1_normal_mot_HHH_b1_01821_000000158_0001_23_39_H_._ems_3hM_348_af2_0001_0000400031_0000001_0 (protein)
chain: SDEAQELAEELLQEIWEAFKNNDEETLEEAFEKAREVLEEYNDPNIEAVLRLARFAIESVKDASS
B24: il10ra_site1_normal_mot_HHH_b2_02337_000000026_0001_38_52_H_._HHH_b1_01890_af2_0001_0000100004_0000001_1 (protein)
chain: SSSSDEEEKAEELIREAEELAENGNPEEAARVAQEALRLILELGDEEALQLLWEAVRRLARSSSS

The binders below were run against il10ra, Q13651 (assay: yeast display titration).

| Binder | apparent Kd |
| --- | --- |
| B1 | inactive: no binding seen |
| B2 | inactive: no binding seen |
| B3 | inactive: no binding seen |
| B4 | inactive: no binding seen |
| B5 | inactive: no binding seen |
| B6 | inactive: no binding seen |
| B7 | inactive: no binding seen |
| B8 | inactive: no binding seen |
| B9 | inactive: no binding seen |
| B10 | inactive: no binding seen |
| B11 | inactive: no binding seen |
| B12 | inactive: no binding seen |
| B13 | inactive: no binding seen |
| B14 | inactive: no binding seen |
| B15 | inactive: no binding seen |
| B16 | inactive: no binding seen |
| B17 | inactive: no binding seen |
| B18 | inactive: no binding seen |
| B19 | inactive: no binding seen |
| B20 | inactive: no binding seen |
| B21 | inactive: no binding seen |
| B22 | inactive: no binding seen |
| B23 | inactive: no binding seen |
| B24 | inactive: no binding seen |

Two neighbouring records from above:

| Binder | apparent Kd |
| --- | --- |
| B17 | inactive: no binding seen |
| B18 | inactive: no binding seen |
